Data: PMC10630886, “Downregulation of stromal syntenin sustains AML development” (EMBO Molecular Medicine, 2023)
These are yes or no findings as the source states them, for the method shown. Binding seen in cells or lysates may run through a third protein. Some entries that bind do so weakly or less than the wild type.

By UniProt entry, the sequences of proteins in these tests, tags left out.
UniProt O00560: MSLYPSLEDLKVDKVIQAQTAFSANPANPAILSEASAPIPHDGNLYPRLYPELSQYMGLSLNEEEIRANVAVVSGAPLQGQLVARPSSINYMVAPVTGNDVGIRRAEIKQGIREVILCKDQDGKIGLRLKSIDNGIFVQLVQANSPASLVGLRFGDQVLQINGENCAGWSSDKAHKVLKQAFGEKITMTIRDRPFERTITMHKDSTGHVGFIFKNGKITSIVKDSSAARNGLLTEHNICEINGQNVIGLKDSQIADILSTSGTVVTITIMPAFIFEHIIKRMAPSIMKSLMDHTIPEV

Biological target: T1, endogenous endoglin (human (endogenous in HS5)) (UniProt P17813)
T1 sequence: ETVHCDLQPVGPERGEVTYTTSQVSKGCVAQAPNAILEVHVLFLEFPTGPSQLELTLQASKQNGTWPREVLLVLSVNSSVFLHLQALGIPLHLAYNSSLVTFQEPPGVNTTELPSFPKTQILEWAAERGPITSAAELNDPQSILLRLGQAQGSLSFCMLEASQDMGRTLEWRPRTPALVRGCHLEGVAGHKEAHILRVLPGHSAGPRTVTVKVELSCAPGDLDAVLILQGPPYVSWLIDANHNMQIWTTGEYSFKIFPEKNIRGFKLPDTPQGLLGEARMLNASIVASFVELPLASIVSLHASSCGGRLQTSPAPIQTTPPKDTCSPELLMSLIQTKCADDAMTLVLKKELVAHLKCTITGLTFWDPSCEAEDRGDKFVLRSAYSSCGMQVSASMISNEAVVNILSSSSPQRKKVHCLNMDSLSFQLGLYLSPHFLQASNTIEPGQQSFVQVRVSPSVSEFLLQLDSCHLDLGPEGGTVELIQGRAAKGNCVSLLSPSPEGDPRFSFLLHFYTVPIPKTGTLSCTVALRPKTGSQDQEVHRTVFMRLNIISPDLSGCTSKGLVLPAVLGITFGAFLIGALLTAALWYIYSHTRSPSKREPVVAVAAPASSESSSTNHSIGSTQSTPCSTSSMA
Assay: proximity ligation; in situ Duolink PLA with syntenin and endoglin antibodies on fixed, permeabilised HS5 cells; endogenous proteins

binding: binds
Substance: endogenous syntenin (from UniProt O00560 1-298)
